These are yes or no findings as the source states them, for the method shown. Binding seen in cells or lysates may run through a third protein. These calls come from enrichment with a bait or labelling near it, and not all partners need be listed. For part of these data: A no says only that the protein was not detected with the bait.

Protein sequences, listed by entry. Tags and fused reporters are not part of them.
UniProt P26599: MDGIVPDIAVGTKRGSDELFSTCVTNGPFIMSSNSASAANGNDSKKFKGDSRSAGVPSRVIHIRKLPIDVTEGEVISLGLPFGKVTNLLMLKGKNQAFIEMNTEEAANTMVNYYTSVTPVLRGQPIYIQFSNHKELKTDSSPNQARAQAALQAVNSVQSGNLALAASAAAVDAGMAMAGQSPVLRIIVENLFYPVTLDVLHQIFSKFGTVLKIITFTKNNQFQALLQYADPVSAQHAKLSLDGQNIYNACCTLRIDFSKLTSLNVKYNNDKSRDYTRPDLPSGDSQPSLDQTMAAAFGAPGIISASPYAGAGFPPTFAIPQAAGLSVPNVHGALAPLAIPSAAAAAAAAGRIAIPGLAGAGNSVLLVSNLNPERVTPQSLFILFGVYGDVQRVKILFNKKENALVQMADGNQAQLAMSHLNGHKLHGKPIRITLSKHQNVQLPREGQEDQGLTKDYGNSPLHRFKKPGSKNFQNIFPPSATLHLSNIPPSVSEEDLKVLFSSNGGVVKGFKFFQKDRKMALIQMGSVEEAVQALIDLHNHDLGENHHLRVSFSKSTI
UniProt P31947: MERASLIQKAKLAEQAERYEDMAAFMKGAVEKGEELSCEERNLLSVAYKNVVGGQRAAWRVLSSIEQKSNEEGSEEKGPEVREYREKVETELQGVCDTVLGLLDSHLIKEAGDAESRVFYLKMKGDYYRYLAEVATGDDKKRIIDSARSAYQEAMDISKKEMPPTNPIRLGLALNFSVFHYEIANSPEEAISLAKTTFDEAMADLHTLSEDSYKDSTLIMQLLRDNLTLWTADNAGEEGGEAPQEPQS
UniProt P41091: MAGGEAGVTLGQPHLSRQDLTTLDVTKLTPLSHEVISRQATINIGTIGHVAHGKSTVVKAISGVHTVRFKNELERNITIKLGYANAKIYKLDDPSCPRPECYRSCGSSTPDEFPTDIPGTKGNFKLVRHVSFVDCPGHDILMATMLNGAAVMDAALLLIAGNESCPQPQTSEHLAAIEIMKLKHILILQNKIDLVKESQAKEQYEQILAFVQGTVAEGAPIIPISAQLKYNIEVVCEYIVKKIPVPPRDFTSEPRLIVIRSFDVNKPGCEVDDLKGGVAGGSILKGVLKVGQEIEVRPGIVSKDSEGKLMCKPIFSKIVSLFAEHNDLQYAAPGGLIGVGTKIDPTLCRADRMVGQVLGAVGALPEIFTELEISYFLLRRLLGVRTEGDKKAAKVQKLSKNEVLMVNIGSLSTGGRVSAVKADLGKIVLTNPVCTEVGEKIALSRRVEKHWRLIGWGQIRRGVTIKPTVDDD
UniProt Q13838: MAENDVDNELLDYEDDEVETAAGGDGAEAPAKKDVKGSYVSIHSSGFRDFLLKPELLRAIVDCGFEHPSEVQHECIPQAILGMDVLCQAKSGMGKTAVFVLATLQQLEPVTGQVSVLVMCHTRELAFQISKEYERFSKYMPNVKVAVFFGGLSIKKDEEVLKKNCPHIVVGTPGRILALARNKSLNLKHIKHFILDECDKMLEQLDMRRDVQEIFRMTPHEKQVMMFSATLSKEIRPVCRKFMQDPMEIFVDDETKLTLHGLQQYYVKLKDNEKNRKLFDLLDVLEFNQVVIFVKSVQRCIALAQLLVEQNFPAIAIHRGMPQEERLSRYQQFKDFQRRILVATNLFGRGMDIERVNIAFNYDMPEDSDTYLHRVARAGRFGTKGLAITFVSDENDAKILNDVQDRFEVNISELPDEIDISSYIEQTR
UniProt Q96AE4: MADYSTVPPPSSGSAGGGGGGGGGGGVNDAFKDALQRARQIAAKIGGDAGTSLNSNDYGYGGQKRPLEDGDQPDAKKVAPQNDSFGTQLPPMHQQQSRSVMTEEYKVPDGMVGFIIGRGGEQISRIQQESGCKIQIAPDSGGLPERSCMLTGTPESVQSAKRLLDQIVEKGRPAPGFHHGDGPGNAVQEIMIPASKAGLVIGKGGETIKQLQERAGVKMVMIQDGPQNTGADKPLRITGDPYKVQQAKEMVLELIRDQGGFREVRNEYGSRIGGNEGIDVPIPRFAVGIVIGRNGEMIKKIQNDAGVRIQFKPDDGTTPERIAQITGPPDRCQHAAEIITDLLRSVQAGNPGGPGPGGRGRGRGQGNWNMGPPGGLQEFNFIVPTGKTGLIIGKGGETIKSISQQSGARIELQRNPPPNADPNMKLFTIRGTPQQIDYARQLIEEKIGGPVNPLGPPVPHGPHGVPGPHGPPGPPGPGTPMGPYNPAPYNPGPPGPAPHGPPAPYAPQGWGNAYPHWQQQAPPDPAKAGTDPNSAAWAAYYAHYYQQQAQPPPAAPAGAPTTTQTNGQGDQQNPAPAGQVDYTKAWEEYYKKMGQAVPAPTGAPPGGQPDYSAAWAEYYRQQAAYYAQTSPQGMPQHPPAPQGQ
UniProt P62491: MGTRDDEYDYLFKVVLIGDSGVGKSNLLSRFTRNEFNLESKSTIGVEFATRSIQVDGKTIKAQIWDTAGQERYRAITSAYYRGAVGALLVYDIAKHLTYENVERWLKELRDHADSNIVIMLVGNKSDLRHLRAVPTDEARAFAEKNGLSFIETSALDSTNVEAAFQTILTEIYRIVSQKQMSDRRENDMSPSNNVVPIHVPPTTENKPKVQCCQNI
UniProt P09012: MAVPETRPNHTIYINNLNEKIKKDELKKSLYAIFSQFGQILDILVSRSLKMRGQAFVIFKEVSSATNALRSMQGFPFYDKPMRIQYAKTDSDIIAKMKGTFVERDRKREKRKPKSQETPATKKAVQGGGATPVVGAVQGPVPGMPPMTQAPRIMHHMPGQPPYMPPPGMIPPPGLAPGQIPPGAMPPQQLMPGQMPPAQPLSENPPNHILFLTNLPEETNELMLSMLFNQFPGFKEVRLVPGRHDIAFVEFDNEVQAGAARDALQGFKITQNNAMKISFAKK
UniProt P60842: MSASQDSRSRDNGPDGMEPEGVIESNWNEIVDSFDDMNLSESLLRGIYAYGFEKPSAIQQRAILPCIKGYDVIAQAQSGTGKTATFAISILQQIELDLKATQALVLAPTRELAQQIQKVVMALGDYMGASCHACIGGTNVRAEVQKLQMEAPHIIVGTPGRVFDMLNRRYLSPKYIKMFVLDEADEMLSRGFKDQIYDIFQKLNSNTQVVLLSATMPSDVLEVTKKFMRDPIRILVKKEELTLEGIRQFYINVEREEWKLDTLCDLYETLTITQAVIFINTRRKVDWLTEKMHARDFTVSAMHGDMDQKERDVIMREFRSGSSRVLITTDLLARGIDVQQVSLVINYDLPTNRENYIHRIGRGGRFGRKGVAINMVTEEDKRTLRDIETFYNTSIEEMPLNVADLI
UniProt P0DME0: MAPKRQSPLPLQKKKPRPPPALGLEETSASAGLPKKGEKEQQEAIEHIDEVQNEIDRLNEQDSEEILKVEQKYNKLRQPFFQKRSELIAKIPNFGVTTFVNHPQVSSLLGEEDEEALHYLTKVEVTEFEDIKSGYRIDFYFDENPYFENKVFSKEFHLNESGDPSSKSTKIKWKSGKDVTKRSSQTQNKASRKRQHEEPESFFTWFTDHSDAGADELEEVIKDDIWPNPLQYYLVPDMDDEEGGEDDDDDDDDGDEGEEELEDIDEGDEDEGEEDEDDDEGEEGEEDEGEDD
UniProt P62308: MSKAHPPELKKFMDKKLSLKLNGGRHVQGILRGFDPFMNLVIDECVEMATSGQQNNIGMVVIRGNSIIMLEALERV
UniProt O00232: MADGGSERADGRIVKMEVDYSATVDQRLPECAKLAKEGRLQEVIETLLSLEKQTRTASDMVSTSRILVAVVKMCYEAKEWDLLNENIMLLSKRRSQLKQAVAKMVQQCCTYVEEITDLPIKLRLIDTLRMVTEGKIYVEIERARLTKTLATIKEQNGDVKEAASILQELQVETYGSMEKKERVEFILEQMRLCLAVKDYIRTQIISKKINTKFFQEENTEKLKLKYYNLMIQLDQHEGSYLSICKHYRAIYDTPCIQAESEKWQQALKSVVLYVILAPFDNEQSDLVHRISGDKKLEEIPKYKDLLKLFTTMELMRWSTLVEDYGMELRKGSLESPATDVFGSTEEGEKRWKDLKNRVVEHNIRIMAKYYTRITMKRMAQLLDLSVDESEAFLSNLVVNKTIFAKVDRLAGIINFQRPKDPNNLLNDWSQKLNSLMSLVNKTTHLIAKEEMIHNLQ
UniProt Q9UKA9: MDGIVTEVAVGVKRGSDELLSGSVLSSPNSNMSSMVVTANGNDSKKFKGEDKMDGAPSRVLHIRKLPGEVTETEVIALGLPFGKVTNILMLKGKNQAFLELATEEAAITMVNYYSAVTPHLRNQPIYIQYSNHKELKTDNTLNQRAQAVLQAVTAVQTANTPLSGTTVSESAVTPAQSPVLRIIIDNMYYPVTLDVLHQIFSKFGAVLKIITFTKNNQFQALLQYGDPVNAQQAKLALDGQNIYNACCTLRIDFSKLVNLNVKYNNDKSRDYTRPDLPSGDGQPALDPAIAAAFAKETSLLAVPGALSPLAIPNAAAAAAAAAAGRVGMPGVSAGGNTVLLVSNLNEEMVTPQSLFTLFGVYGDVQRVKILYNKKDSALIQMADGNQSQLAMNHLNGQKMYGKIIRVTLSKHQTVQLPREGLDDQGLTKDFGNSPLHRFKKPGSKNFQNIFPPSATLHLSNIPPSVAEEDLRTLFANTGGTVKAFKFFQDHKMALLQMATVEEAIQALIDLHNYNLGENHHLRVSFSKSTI
UniProt P63208: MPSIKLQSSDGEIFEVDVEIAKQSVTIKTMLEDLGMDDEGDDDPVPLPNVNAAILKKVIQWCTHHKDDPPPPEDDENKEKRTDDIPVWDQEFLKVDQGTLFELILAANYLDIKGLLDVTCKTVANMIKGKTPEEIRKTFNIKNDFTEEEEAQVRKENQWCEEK
UniProt P17844: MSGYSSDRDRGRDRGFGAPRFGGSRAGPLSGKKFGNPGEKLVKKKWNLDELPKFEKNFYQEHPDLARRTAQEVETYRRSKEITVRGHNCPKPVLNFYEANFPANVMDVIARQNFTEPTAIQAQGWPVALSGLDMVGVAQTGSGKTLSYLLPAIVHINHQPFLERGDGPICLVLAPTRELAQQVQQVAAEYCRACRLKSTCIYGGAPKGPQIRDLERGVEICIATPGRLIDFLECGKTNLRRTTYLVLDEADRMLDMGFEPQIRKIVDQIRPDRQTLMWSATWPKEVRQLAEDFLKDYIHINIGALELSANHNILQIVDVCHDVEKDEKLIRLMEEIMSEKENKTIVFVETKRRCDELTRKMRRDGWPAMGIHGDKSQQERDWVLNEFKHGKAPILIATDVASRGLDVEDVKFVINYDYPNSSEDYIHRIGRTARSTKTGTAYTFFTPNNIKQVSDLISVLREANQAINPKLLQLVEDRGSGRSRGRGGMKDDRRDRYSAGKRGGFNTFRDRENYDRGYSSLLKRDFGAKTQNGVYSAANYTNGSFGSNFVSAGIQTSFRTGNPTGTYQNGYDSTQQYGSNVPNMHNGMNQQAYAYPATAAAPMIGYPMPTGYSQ
UniProt Q8TAQ2: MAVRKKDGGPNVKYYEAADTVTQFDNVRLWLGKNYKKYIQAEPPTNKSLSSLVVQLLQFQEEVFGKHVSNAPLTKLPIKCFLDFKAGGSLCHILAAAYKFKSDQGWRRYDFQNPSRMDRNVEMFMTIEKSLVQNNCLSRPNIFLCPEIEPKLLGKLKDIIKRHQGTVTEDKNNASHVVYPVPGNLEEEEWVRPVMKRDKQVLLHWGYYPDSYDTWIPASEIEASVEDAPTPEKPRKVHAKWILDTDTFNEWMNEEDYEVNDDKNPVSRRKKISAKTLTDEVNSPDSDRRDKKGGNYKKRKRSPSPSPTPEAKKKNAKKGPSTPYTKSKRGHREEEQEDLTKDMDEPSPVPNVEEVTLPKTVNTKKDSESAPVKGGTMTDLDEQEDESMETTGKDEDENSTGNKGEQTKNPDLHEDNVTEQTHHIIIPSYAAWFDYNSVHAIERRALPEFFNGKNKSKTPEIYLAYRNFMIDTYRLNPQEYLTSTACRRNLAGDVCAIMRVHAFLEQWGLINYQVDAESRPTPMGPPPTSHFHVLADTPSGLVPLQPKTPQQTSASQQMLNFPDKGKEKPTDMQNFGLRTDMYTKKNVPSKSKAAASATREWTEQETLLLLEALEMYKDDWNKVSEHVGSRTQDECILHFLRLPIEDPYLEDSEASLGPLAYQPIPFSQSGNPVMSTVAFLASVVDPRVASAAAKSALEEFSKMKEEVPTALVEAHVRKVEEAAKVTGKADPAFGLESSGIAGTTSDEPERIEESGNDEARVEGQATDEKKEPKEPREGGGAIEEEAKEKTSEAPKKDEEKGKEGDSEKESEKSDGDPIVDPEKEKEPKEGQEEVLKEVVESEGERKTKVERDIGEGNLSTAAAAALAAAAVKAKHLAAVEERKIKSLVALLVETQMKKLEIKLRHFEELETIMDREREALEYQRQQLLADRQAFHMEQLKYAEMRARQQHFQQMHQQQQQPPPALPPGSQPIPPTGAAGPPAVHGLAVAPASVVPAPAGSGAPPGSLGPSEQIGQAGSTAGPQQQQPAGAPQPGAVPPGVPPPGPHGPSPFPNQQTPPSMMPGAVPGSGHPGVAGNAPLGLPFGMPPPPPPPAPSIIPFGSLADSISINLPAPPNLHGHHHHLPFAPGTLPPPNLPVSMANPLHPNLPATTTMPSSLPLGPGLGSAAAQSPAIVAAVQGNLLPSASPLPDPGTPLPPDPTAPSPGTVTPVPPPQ

These results are taken from PMC12136456.

The first experiment addresses Polypyrimidine Tract Binding Protein 1, His-tagged (UniProt P26599). The experiment in a line: affinity purification with mass spectrometry; 48 ug His-tagged PTBP in a 200 ul splicing reaction (2.2 mM MgCl2, 0.4 mM ATP, 20 mM creatine phosphate) with WERI retinoblastoma nuclear extract, 30 C 90 min; HisPur Ni-NTA magnetic resin overnight at 4 C; washes with 150 mM NaCl, 30 mM imidazole; eluted with 300 mM imidazole; proteins of the Buffer DG and WERI only controls removed from the lists; the extract includes RNA transcripts, so a protein may be bound directly or through RNA; only the target purified.
Turning to TAF8 (from UniProt Q7Z7C8 1-310), the binding entry is listed as “binds”.

Regarding “14-3-3 adaptor protein SFN (from UniProt P31947 1-248)”, the binding result was “binds”.

For “Ran-related protein RCC1 (from UniProt P18754 1-421)”, the binding entry is on record as “binds”.

Regarding “ribosomal protein RPLP1 (from UniProt P05386 1-114)”, the binding result is given as “binds”.

In the case of “Ras-related protein RAB7A (from UniProt P51149 1-207)”, the binding entry was “binds”.

Regarding YWHAZ (from UniProt P63104 1-245), the binding result is reported as “binds”.

As for “transcriptional regulatory factor TRIM28 (from UniProt Q13263 1-835)”, the binding entry is listed as “binds”.

Take YWHAB (from UniProt P31946 1-246): the binding result is on record as “binds”.

On to CHD5 (from UniProt Q8TDI0 1-1954), for which the binding entry is “binds”.

With “elongation factor EEF1D (from UniProt P29692 1-281)”, the binding result was “binds”.

EIF2S3 (from UniProt P41091 1-472): the binding entry was “binds”.

In the case of “splicing factor hnRNPK (from UniProt P61978 1-463)”, the binding entry is given as “binds”.

With “splicing factor DDX39B (from UniProt Q13838 1-428)”, the binding entry is recorded as “binds”.

With “Ras-related protein RAB2A (from UniProt P61019 1-212)”, the binding entry is on record as “binds”.

Consider “E3 ubiquitin ligase LTN1 (from UniProt O94822 1-1766)”, for which the binding result was “binds”.

For the substance FUBP1 (from UniProt Q96AE4 1-644), the binding result is reported as “binds”.

For “ribosomal protein RPLP2 (from UniProt P05387 1-115)”, the binding result is given as “binds”.

For “Ras-related protein RAB11A (from UniProt P62491 1-216)”, the binding entry is recorded as “binds”.

As to “deubiquitinating enzyme USP7 (from UniProt Q93009 1-1102)”, the binding entry is “binds”.

For the substance PSMA6 (from UniProt P60900 1-246), the binding result is recorded as “binds”.

Regarding “mRNA cap methyltransferase RNMT (from UniProt O43148 1-476)”, the binding result is given as “binds”.

For the substance PRRC2A (from UniProt P48634 1-2157), the binding entry is “binds”.

On to “cleavage and polyadenylation factor 6 (from UniProt Q16630 1-551)”, for which the binding result is “binds”.

As for “splicing factor snRNPA (from UniProt P09012 1-282)”, the binding entry was “binds”.

As for “translation initiation factor EIF4A1 (from UniProt P60842 1-406)”, the binding result is on record as “binds”.

Regarding SETSIP (from UniProt P0DME0 1-292), the binding result is on record as “binds”.

For the substance PABPC1 (from UniProt P11940 1-636), the binding entry was “binds”.

As for “splicing factor SF3B2 (from UniProt Q13435 1-895)”, the binding result was “binds”.

For the substance “small nuclear ribonuclear protein SNRNPG (from UniProt P62308 1-76)”, the binding result is listed as “binds”.

Consider “translation initiation factor EIF4A2 (from UniProt Q14240 1-407)”, for which the binding result was “binds”.

Turning to PSMD12 (from UniProt O00232 1-456), the binding result is “binds”.

A further experiment has as its target Polypyrimidine Tract Binding Protein 2, His-tagged (UniProt Q9UKA9). The description is as above.
For the substance SKP1 (from UniProt P63208 1-163), the binding entry was “binds”.

“ribosomal protein RPLP1 (from UniProt P05386 1-114)”: the binding result is “no binding”.

Turning to YWHAZ (from UniProt P63104 1-245), the binding result is listed as “binds”.

Turning to YWHAB (from UniProt P31946 1-246), the binding result was “binds”.

For the substance SMARCB1 (from UniProt Q12824 1-385), the binding entry is listed as “binds”.

With MAGOH (from UniProt P61326 1-146), the binding entry was “binds”.

On to SMARCA2 (from UniProt P51531 1-1590), for which the binding entry is “binds”.

For the substance “ANP32B, an acidic leucine rich phosphoprotein (from UniProt Q92688 1-251)”, the binding result was “binds”.

For “ribosomal protein RPLP2 (from UniProt P05387 1-115)”, the binding result is on record as “no binding”.

On to “deubiquitinating enzyme USP7 (from UniProt Q93009 1-1102)”, for which the binding entry is given as “binds”.

As to “mRNA cap methyltransferase RNMT (from UniProt O43148 1-476)”, the binding result is on record as “binds”.

As to “serine arginine rich splicing factor SRSF1 (from UniProt Q07955 1-248)”, the binding result is “binds”.

On to “cleavage and polyadenylation factor 6 (from UniProt Q16630 1-551)”, for which the binding result is “binds”.

For “histone lysine demethylase RIOX2 (from UniProt Q8IUF8 1-465)”, the binding entry is on record as “binds”.

Turning to SETSIP (from UniProt P0DME0 1-292), the binding result is listed as “binds”.

Consider SMARCE1 (from UniProt Q969G3 1-411), for which the binding entry is “binds”.

On to “heterogenous ribonuclear protein hnRNPH1 (from UniProt P31943 1-449)”, for which the binding entry is listed as “binds”.

For “DDX5 (a DEAD box helicase) (from UniProt P17844 1-614)”, the binding result was “binds”.

For the substance “elongation factor EEF1A1 (from UniProt P68104 1-462)”, the binding entry is listed as “binds”.

Consider MAGOHB (from UniProt Q96A72 1-148), for which the binding entry is “binds”.

Consider “small nuclear ribonuclear protein SNRNPG (from UniProt P62308 1-76)”, for which the binding entry is reported as “binds”.

ZSWIM8 (from UniProt A7E2V4 1-1837): the binding result is “binds”.

With SMARCC2 (from UniProt Q8TAQ2 1-1214), the binding result is “binds”.
